# The other results are listed elsewhere or left out.
# By UniProt entry, the sequences of proteins in these tests, tags left out.
# UniProt Q0JBA9, entry or part of it: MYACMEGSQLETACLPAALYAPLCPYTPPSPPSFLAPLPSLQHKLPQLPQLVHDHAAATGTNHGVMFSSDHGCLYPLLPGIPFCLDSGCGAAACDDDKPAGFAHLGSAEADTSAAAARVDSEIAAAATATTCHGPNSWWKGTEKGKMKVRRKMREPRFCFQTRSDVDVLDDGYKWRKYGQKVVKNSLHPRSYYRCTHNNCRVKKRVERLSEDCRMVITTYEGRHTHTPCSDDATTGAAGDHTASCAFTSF
# Biological target: OsWRKY34 (Oryza sativa, UniProt Q0JBA9 1-250)
# Experiment: protein-binding microarray (RPBM); PBS, 2% BSA, 51.3 ng/ul salmon testes DNA, 50 uM zinc acetate, 200 nM TF, 25 C, 1 h; high values mean tight binding
# Details: protein: recombinant; tags: N-terminal polyhistidine and DsRed monomer fusion (pET32a); label: CyDye5-dUTP incorporated in the synthesized complementary strand; 3' TTTTT single-stranded linker to array surface; dsDNA, one strand shown
# Procedure, shortened: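 The binding signal is fluorescence intensity per array feature (arbitrary units). Readings came from an Axon 4000B scanner after a washed, 2% BSA-blocked, double-stranded custom Agilent array had been incubated for 1 h at 25 °C with 200 nM protein and 50 µM zinc acetate. The protein was a Ni–NTA-purified transcription factor fused N-terminally to polyhistidine and DsRed, expressed in E. coli BL21-CodonPlus.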
row,Sequence,binding signal
1,AGCTCGATCTCCGCACAGTCCCGGGCCACGCCCACACCACCGGAGTCACCTAGTGCAG,11800 fluorescence intensity (a.u.)
2,CCTCACACACCACAACATCCATCTTCACCCGGAATTAATCCGGAGTCACCTAGTGCAG,9060 fluorescence intensity (a.u.)
3,CATAACTTATCCCCACGCAACGCCCACCTACCACACTCCCCGGAGTCACCTAGTGCAG,8590 fluorescence intensity (a.u.)
4,TTCTTCCTTTTGTTGAGAATTTTGCCTTCCATCTGCTTAACGGAGTCACCTAGTGCAG,8870 fluorescence intensity (a.u.)
5,ATATCTATAACTTTTATTTTGGTCATATCTTTTATTTGGCCGGAGTCACCTAGTGCAG,9730 fluorescence intensity (a.u.)
6,TTCATCGTAAACGTTACTTCTCGTTATAAATTGATTTTTTCGGAGTCACCTAGTGCAG,10100 fluorescence intensity (a.u.)
7,AATTTCTTGTTCCGTCCATGGTGTTGTCGATAGGAAGGCGCGGAGTCACCTAGTGCAG,8570 fluorescence intensity (a.u.)
8,GTGTGTATGTTTTGTGTTGCGGACTTGCGATGCGTAGCGACGGAGTCACCTAGTGCAG,8180 fluorescence intensity (a.u.)
9,TCCACTACCACTACCGTTCCCGATCTCTGGTTCCCTGTGCCGGAGTCACCTAGTGCAG,8020 fluorescence intensity (a.u.)
10,GAATTTTAGCTCAGTGGCTTGTCGTTTTCTCGTTTTCTGACGGAGTCACCTAGTGCAG,12300 fluorescence intensity (a.u.)
11,CGGTGATTTTTTCTGAAGCTGGTCCCTGGCCCACACTACTCGGAGTCACCTAGTGCAG,8870 fluorescence intensity (a.u.)
12,GTTTATCTCTTGTCACGACGTCGGTTGTCCTTGTGCTATTCGGAGTCACCTAGTGCAG,9840 fluorescence intensity (a.u.)
13,TATTTTCCGGATCGAATTGCCACGTAAGGGCCACATCAGTCGGAGTCACCTAGTGCAG,8510 fluorescence intensity (a.u.)
14,CGCACGGCACGGGTGGGCGGGCGGGCGCGCGCCGGTGGCGCGGAGTCACCTAGTGCAG,9700 fluorescence intensity (a.u.)
15,TTTCAGTTTGGCATCTCAGTGTTTTTTTATATACGTATATCGGAGTCACCTAGTGCAG,12000 fluorescence intensity (a.u.)
16,ACCCTCTACCATTTTTATTTCCATATTTTTTTCTTGAAAACGGAGTCACCTAGTGCAG,8670 fluorescence intensity (a.u.)
17,TCTAGCCACGACAACTTACTCATCTTTTATTAAAATCCATCGGAGTCACCTAGTGCAG,8220 fluorescence intensity (a.u.)
18,AACACGAGTCGCGCCGCCGATCTCAGCAGGGGAGGGGAGGCGGAGTCACCTAGTGCAG,10900 fluorescence intensity (a.u.)
19,GTGATGCATATATTCTCTCATATTATTGCCTGTTGGCTTTCGGAGTCACCTAGTGCAG,8280 fluorescence intensity (a.u.)
20,TCTGCCCATGGTCTGCCCGGCCGACTCCGTGTCAGTTTCGCGGAGTCACCTAGTGCAG,8660 fluorescence intensity (a.u.)
21,ACCACCTCGTAGCCTCGGCTGCAACGGCTACTACCACCATCGGAGTCACCTAGTGCAG,8100 fluorescence intensity (a.u.)

row,Sequence,binding signal
1,CCGTATTTTAATATATGACGTCGTTGACTTTTTAACCAACCGGAGTCACCTAGTGCAG,27300 fluorescence intensity (a.u.)
2,GGTCTGACTGATTGCGTCGTGTAACAAACATTATATTCTTCGGAGTCACCTAGTGCAG,9070 fluorescence intensity (a.u.)
3,CACGTCGTCCAGCTTTATCATTCGCTTTCGTTTTCCCCTGCGGAGTCACCTAGTGCAG,10200 fluorescence intensity (a.u.)
4,AAACCCTAATTCCATTGCTTTCGTCAGGGTCGCCGGAGTTCGGAGTCACCTAGTGCAG,12000 fluorescence intensity (a.u.)
5,ATTGCTCCAGGAGCGGAACTTGAGCCCATTCATTTTTATTCGGAGTCACCTAGTGCAG,8120 fluorescence intensity (a.u.)
6,CTTTGCAACACGGCCTCTGCCTACGAGATCGGCGACGACGCGGAGTCACCTAGTGCAG,8740 fluorescence intensity (a.u.)
7,GTTCTAGTGGCTCTTTTTAGTTTTCTAATATCAGTCTTCCCGGAGTCACCTAGTGCAG,8230 fluorescence intensity (a.u.)
8,ACCGATTCGTTTTCCCAAATCAACCGCACTACTACTGTTTCGGAGTCACCTAGTGCAG,9440 fluorescence intensity (a.u.)
9,GTCCGTGTAAAGATGGTGTTCTTTTTTTTTTTTATGACACCGGAGTCACCTAGTGCAG,8690 fluorescence intensity (a.u.)
10,GTGGTGTACGTCAGCCTGGGGAGCCTCACGGTCATCTCCCCGGAGTCACCTAGTGCAG,8470 fluorescence intensity (a.u.)
11,GGACAGTTCATCGCCCTCGTTTTATATATCTAGATCTGAACGGAGTCACCTAGTGCAG,14000 fluorescence intensity (a.u.)
12,GCCTCGCCTTCTTTTTCCACACCCACACCAACCCCATCCCCGGAGTCACCTAGTGCAG,10600 fluorescence intensity (a.u.)
13,TATTTTGATAACATTTTTCTCATTTTTGTCTTTTTTGTTACGGAGTCACCTAGTGCAG,8340 fluorescence intensity (a.u.)
14,GGGCCTGAAGTTTATTTTTATTATTTTACTCACTGACATTCGGAGTCACCTAGTGCAG,9160 fluorescence intensity (a.u.)
15,ACACAGATACTCACAACACGCGTACGTTATCTCCAGCTGACGGAGTCACCTAGTGCAG,12100 fluorescence intensity (a.u.)
16,CATTTGAGTTCAATTTTTCTATGGTTGGTTCTTGTGTGTCCGGAGTCACCTAGTGCAG,9910 fluorescence intensity (a.u.)
17,TCTCGGGTGGGTCTACGGCGCGTTCGTTCTCTCTCCATCCCGGAGTCACCTAGTGCAG,9430 fluorescence intensity (a.u.)
18,CGTTTCTTGGGCCCCGATTTGGGAGGGGTTCTTGGCGATGCGGAGTCACCTAGTGCAG,8900 fluorescence intensity (a.u.)
19,AGCTCTGTATTGCCGTTGCTTTTATTTAAAAGATATTTTTCGGAGTCACCTAGTGCAG,8030 fluorescence intensity (a.u.)
20,GACTCAGATTGGACTTTCTTTCCCCTATTTTCACAGTTGGCGGAGTCACCTAGTGCAG,8940 fluorescence intensity (a.u.)
21,ATTTGATGATCACACACTCATGTATGCATGTTATTAGTATCGGAGTCACCTAGTGCAG,8050 fluorescence intensity (a.u.)

# Pulled one by one from above, three records:
row,Sequence,binding signal
14,CGCACGGCACGGGTGGGCGGGCGGGCGCGCGCCGGTGGCGCGGAGTCACCTAGTGCAG,9700 fluorescence intensity (a.u.)
4,TTCTTCCTTTTGTTGAGAATTTTGCCTTCCATCTGCTTAACGGAGTCACCTAGTGCAG,8870 fluorescence intensity (a.u.)
13,TATTTTCCGGATCGAATTGCCACGTAAGGGCCACATCAGTCGGAGTCACCTAGTGCAG,8510 fluorescence intensity (a.u.)

# — article PMC7819943, “Rice protein-binding microarrays: a tool to detect cis-acting elements near promoter regions in rice”
